PubChem BioAssay AID1508597 | Cure First | 2020
Shown is an unselected part of the about 2,100 reagents, in one setting of the screen. 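Calls flag viability under 80% in either arm, not effects specific to rucaparib; the reference for percent is not stated.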 A number with no mark means an inactive call. Some reagents were tested in more than one well and are listed for each. Reagent sequences are not shown. The record does not give: the 100% reference.

Aim: 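Survival screen with siRNA in ovarian cancer cells derived from patients, with or without rucaparib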 (primary screen)
System: human ovarian carcinoma lines grown from tumours: OCI-P5x (papillary serous) and OCI-C5x (clear cell)
Reagent: siRNA pool against human genes, 1.25 pmol siRNA per well
Timing: 72 h or 96 h, depending on the cell culture
Treatment: rucaparib 20 µM (about IC30) or vehicle, present until read-out
Rucaparib or vehicle: Vehicle
Cell line: OCI-C5x (clear cell)
Detection: 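ATP luminescence measured at 72 or 96 h according to the culture, then normalised and expressed as percent viability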
Reading the numbers: viability, normalised: higher = more viable cells remaining
Call rule: 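Active when normalised viability falls below 80 percent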
Calls: active = viability under 80%; inactive = viability 80% or more

Target gene	technical replicate	viability, normalised (%)
TGFB2	1	68 (active)
TGFB2	1	56.5 (active)
TGFB2	2	45.6 (active)
TGFB2	2	50.4 (active)
TGFB2	3	72.7 (active)
TGFB2	3	32.6 (active)
RAPGEF3	1	56.4 (active)
RAPGEF3	2	51.1 (active)
RAPGEF3	3	81.7
TERT	1	46.6 (active)
TERT	2	59.9 (active)
TERT	3	51.9 (active)
RING1	1	48 (active)
RING1	2	48.4 (active)
RING1	3	54.7 (active)
MAPK3	1	67.8 (active)
MAPK3	2	62.9 (active)
MAPK3	3	64.7 (active)
GSK3A	1	42.2 (active)
GSK3A	1	35.7 (active)
GSK3A	2	52.3 (active)
GSK3A	2	36.8 (active)
GSK3A	3	28.7 (active)
GSK3A	3	49.6 (active)
GUK1	1	31.4 (active)
GUK1	2	41.4 (active)
GUK1	3	40.7 (active)
PHF21B	1	37.7 (active)
PHF21B	2	43.6 (active)
PHF21B	3	56.8 (active)
CLDN9	1	50.8 (active)
CLDN9	2	42.7 (active)
CLDN9	3	55.4 (active)
MAST1	1	49.1 (active)
MAST1	2	44.1 (active)
MAST1	3	38.4 (active)
DAPK3	1	61.2 (active)
DAPK3	1	36.3 (active)
DAPK3	2	66.9 (active)
DAPK3	2	50.9 (active)
DAPK3	3	37.1 (active)
DAPK3	3	72.1 (active)
RYR1	1	44 (active)
RYR1	2	30.4 (active)
RYR1	3	34.6 (active)
DCLRE1A	1	120
DCLRE1A	2	59.3 (active)
DCLRE1A	3	74.6 (active)
GINS1	1	59.9 (active)
GINS1	2	45.9 (active)
GINS1	3	46.1 (active)
CHMP6	1	34.5 (active)
CHMP6	2	43.1 (active)
CHMP6	3	45.2 (active)
STK32B	1	37.9 (active)
STK32B	2	39.8 (active)
STK32B	3	42.1 (active)

As entered above.
MAPK3, technical replicate 2, viability, normalised (%): 62.9 (active)
Value for MAST1, technical replicate 1 under “viability, normalised (%)”: 49.1 (active)
Value for CLDN9, technical replicate 2 in “viability, normalised (%)”: 42.7 (active)
